Assay results: US20230236192A1
These are yes or no findings as the source states them, for the method shown. Some entries that bind do so weakly or less than the wild type.

The chains behind the UniProt entries cited, without tags or fusion partners. Where a name states a change or a piece, a line headed by the entry shows the natural chain unless it says otherwise.
UniProt P05981: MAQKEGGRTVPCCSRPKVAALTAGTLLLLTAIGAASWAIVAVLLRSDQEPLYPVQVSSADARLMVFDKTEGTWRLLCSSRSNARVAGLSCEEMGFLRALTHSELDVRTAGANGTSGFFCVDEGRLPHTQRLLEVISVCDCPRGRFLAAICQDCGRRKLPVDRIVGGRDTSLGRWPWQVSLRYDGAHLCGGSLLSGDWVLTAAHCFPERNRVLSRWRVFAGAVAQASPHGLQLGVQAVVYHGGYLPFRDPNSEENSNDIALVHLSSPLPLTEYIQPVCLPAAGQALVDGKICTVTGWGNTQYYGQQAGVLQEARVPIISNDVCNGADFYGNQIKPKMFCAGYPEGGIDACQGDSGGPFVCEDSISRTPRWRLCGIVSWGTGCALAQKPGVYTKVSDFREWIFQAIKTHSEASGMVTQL

Experiments:
[1] = biological target: activated recombinant hepsin (SEQ ID NO: 44 after activation with thrombin) (human) (UniProt P05981); assay: sandwich ELISA
[2] = biological target: His-tagged recombinant hepsin protein having an amino acid sequence of SEQ ID NO: 43 (human) (UniProt P05981); assay: sandwich ELISA (double-determinant immunoassay)

binding [1]: binds | binding [2]: binds
B1: mAb 5B8 (antibody, V domains shown)
VH: DVQLVESGGDLVQPGESRKLSCAASGFTFSSFGMHWVRQAPEKGLEWVAYISSGSSAIYYADTVKGRFTISRDNPKNTLFLHMTSLRSEDTAIYYCAGSNWDYFDYWGQGTTLTVSS
VL: DIVMSQSPSSLAVSAGEKVTMSCKSSQSLLNSRIRKNYLAWYQQKPGQSPKLLIYWASTRESGVPDRFTGSGSGTDFTLTISSVQAEDLAVYYCKQSYNLWTFGGGTKLEIK
